# Measurements from patent publication US5464820A, “Specific inhibitors of tissue kallikrein” (priority 1993, dated 1995).
# Amino acid sequences for entries named in this document (tags omitted). Residues count along the entry.
# UniProt P00752, 95-246 limits assumed: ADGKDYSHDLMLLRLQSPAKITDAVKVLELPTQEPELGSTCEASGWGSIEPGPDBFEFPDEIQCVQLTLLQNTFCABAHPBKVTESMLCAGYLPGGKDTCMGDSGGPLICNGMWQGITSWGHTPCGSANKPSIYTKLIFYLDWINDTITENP
# UniProt P00752, 8-87 limits assumed: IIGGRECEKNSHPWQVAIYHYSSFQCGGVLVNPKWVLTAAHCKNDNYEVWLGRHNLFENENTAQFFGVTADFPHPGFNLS
# Not every detail of the peptide structures is certain; ends, links or a residue may be inferred. Non-standard residues stand in square brackets, D forms with d. Residues, ends and D or L forms follow the SMILES beside them. Phe(4-NH2) = Nc1ccc(C[C@H](N)C(=O)O)cc1
# Assays:
# [1] = molecular target: porcine pancreatic kallikrein (PPK) (Sus scrofa, UniProt P00752); assay: Inhibition of porcine pancreatic kallikrein, cleavage of chromogenic substrate S-2266 (KI); assay type: biochemical; settings: Table 7
# [2] = tested on: Toxin A intestinal secretion; settings: rabbit, in vivo, iv
structure (smiles),measurement,setting,value
"CC(C)[C@H](NC(=O)[C@H](CO)NC(=O)[C@H](Cc1ccc(N)cc1)NC(=O)[C@H](Cc1ccccc1)NC(=O)[C@@H]1CCCN1)C(=O)N[C@@H](CCC(N)=O)C(N)=O [KIDZ-6, Pro-Phe-Aph-Ser-Val-Gla] (H-PF[Phe(4-NH2)]SVQ-NH2)",selectivity for tissue kallikrein over plasma kallikrein or urokinase,[1],selectivity for tissue kallikrein over plasma kallikrein or urokinase
same,inhibition of toxin A fluid secretion,[2],61.6%
